Test results as given in patent US20200291061 (published 2020).

Assay: general procedure: solution-phase peptide synthesis; 1-ethyl-3-(3-dimethylaminopropyl)carbodiimide hydrochloride
Conditions: coupling step

| Substance | step yield [%] |
| --- | --- |
| Boc-Phe-Phe-Phe-Phe-OCHCS | 94 |
| Fmoc-Phe-Phe-Phe-Phe-OSi(tBu)2(C18H37) | 94 |
| Boc-Phe-Phe-Phe-Phe-OIPBS | 89 |
| Boc-Ala-Ser(Bn)-Phe-Phe-OSi(sBu)2(tBu) | 89 |
| Cbz-MeAla-Cys(Trt)-Ala-Phe-Phe-OSi(tBu)2(Bn) | 75 |
| Fmoc-Gly-Phe-Phe-Phe-OSi(tBu)2(Ph) | 71 |
| Cbz-Lys(Boc)-Phe-Phe-Phe-OSi(OtBu)3 | 90 |
| Fmoc-Pro-Ala-Ser(Bn)-Phe-Phe-OSi(sBu)2(tBu) | 100 |
| Boc-MePhe-MePhe-MePhe-MePhe-OBIBS | 90 |
| Fmoc-Phe-Phe-Phe-Phe-OTIPS | 77 |
| Boc-Arg(Ts)-Arg(Ts)-Arg(Ts)-Ala-Arg(Ts)-OBIBS | 86 |
| Boc-Phe-Phe-Phe-Phe-OSBCS | 96 |
| Fmoc-Gly-Asp(OBn)-Phe-Phe-OSi(tBu)2(OCH2CH2Ph) | 90 |
| Boc-Ala-Val-Pro-Phe-OSi(tBu)3 | 85 |
| Cbz-Phe-Phe-Ala-Val-Pro-Phe-OSi(tBu)3 | 89 |
| Fmoc-Cys(Trt)-Ala-Phe-Phe-OSi(tBu)2(Bn) | 90 |
| Fmoc-Ser(Bn)-Ala-Phe-Phe-O(t-Bu)Silolane | 30 |
| Boc-Phe-Phe-Phe-Phe-OCPCS | 91 |
| Boc-Ala-Arg(Ts)-Arg(Ts)-Arg(Ts)-Ala-Arg(Ts)-OBIBS | 102 |
| Boc-Phe-Phe-Phe-Phe-OIPCS | 81 |
| Fmoc-Cys(Trt)-Ala-Arg(Ts)-Arg(Ts)-Arg(Ts)-Ala-Arg(Ts)-OBIBS | 92 |
| Fmoc-Phe-Ala-Val-Pro-Phe-OSi(tBu)3 | 99 |
| Cbz-MePhe-MePhe-MePhe-MePhe-MePhe-OBIBS | 93 |
| Boc-Arg(Ts)-Arg(Ts)-Ala-Arg(Ts)-OBIBS | 78 |
| Fmoc-Lys(Cbz)-Gly-Asp(OBn)-Phe-Phe-OSi(tBu)2(OCH2CH2Ph) | 49 |
| Cbz-Phe-Phe-Phe-Phe-Phe-OSi(tBu)2(C18H37) | 95 |

Same assay, conditions: coupling step, 2-Step Yield

| Substance | step yield [%] |
| --- | --- |
| Cbz-Phe-Phe-Phe-Phe-Phe-OIPCS | 93 |
| Cbz-Phe-Phe-Phe-Phe-Phe-OSBCS | 96 |
| Cbz-Phe-Phe-Phe-Phe-Phe-OCHCS | 54 |
| Cbz-Phe-Phe-Phe-Phe-Phe-OIPBS | 86 |
| Cbz-Phe-Phe-Phe-Phe-Phe-OCPCS | 72 |

Same assay, conditions: late stage modification step

| Substance | step yield [%] |
| --- | --- |
| Fmoc-K(Cbz)GD(OBn)FF-OH | 69 |
| H-Arg(Ts)-Arg(Ts)-Ala-Arg(Ts)-OBIBS | 104 |
| Cbz-FFAVPF-OH | 88 |
| H-Phe-Ala-Val-Pro-Phe-OSi(tBu)3 | 97 |
| H-Ala-Val-Pro-Phe-OSi(tBu)3 hydrochloride | 100 |
| H-MePhe-MePhe-MePhe-MePhe-OBIBS | 99 |
| Cbz-[NMeA]C(Trt)AFF-OH | 100 |
| H-Cys(Trt)-Ala-Arg(Ts)-Arg(Ts)-Arg(Ts)-Ala-Arg(Ts)-OBIBS | 81 |
| H-Gly-Asp(OBn)-Phe-Phe-OSi(tBu)2(OCH2CH2Ph) | 49 |
| Cbz-MePhe-MePhe-MePhe-MePhe-MePhe-OH | 95 |
| Fmoc-PAS(Bn)FF-OH | 72 |
| H-Phe-Phe-Phe-Phe-OSi(tBu)2(C18H37) | 96 |
| Cbz-K(Boc)FFF-OH | 76 |
| H-Ala-Ser(Bn)-Phe-Phe-OSi(sBu)2(tBu) | 79 |
| Ac-Cys(Trt)-Ala-Arg(Ts)-Arg(Ts)-Arg(Ts)-Ala-Arg(Ts)-OBIBS | 100 |
| H-Arg(Ts)-Arg(Ts)-Arg(Ts)-Ala-Arg(Ts)-OBIBS | 95 |
| H-Ala-Arg(Ts)-Arg(Ts)-Arg(Ts)-Ala-Arg(Ts)-OBIBS | 98 |
| Ac-Cys(Trt)-Ala-Arg(Ts)-Arg(Ts)-Arg(Ts)-Ala-Arg(Ts)-OH | 85 |
| H-Phe-Phe-Phe-Phe-OSi(tBu)2(CH2TMS) | 98 |

Assay: solution-phase peptide synthesis; 1-ethyl-3-(3-dimethylaminopropyl)carbodiimide hydrochloride
Conditions: coupling step

| Substance | step yield [%] |
| --- | --- |
| Boc-Phe-Phe-Phe-Phe-OSi(tBu)2(CH2TMS) | 99 |

Square brackets hold non-standard residues; d marks the D form. * marks the point of attachment. Trt = c1ccc(C(c2ccccc2)(c2ccccc2)*)cc1; Fmoc = O=C(OCC1c2ccccc2-c2ccccc21)*; NMeA = CN[C@@H](C)C(=O)O; Cbz = O=C(OCc1ccccc1)*; Boc = CC(C)(C)OC(=O)*; OBn = c1ccc(CO*)cc1; Bn = c1ccc(C*)cc1
